US20240174642A1, “HETEROCYCLIC COMPOUNDS CAPABLE OF ACTIVATING STING” (Boehringer Ingelheim International GmbH, priority 2022, published 2024)
At least one structure is not confirmed: it was looked up by name or label, or the drawing left a doubt.

Test system: dog STING (dSTING)
Experiment: Dog differential scanning fluorimetry (DSF) assay, thermal shift of dog STING protein
Assay type: binding
Conditions: 100 μM compound, 3 μM recombinant dog STING (residues 149 to 375), 5× SYPRO Orange, 2% DMSO
From the text: The protein used for the biophysical experiments was a recombinant dog STING protein comprising its cytosolic cGAMP binding ectodomain. A codon optimized DNA sequence (for expression in Escherichia coli) encoding amino acid residues 149 to 375 of dog STING was synthesized by GeneArt (Regensburg, Germany) and inserted into a pET17b E. coli expression vector. The protein construct encodes an N-terminal 8× His-tag followed by tobacco etch virus protease (TEV) cleavage site and the above STING gene sequence. The resulting protein sequence for the used dog STING protein (SEQ ID No. 1) is listed below:
For expression of the above recombinant dog STING, the construct was transformed into E. coli BL21 DE3 strain and grown in shake flasks in LB-medium at 15° C. […]
Dye fluorescence is quenched in aqueous environment and increases upon association of the dye with the hydrophobic parts of the unfolding protein. […] The inflection point of the curve represents the “melting” temperature of the protein (Tm) which is calculated numerically using the Boltzmann equation.
The thermal stability of the dog STING protein was measured in assay buffer containing 20 mM Tris, 150 mM NaCl at pH7.5. […]
Two replicates of TM measurements were averaged, and the standard deviation was calculated. […]

In the case of Cc1cccc2c(-c3cccc4nn(C)cc34)nn(-c3ccc(N4CC[C@H](CC(=O)O)C4)nc3)c12 [Example 1, 2-[(3R)-1-(5-{2″,7-dimethyl-1H,2″H-[3,4″-biindazol]-1-yl}pyridin-2-yl)pyrrolidin-3-yl]acetic acid], the “Delta TM, interaction with dog STING as determined by DSF (dDSF)” value is reported as 34.0 °C.
